Measured data: PubChem BioAssay AID504744 (Drosophila RNAi Screening Center, 2011)
The deposit covers about 23,000 reagents; this is a random part of those that have a named target and a result. Of all reagents, 98 (0.43%) were called active. 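Only hit calls are given; the phospho-dAkt signals, z-scores and hit direction were not deposited.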 Names joined by + are all predicted targets of the reagent.

- Test: 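Find genes whose loss alters insulin-driven dAkt phosphorylation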 (primary screen)
- Cell system: Drosophila Kc167 cells
- Reagents: long dsRNA against Drosophila genes, 250 ng dsRNA per well of a 384-well plate
- Timing: 3 days of knock-down, then overnight serum-free starvation before stimulation
- Treatment: bovine insulin at 387 nM for 10 minutes after 12 h without serum
- Read-out: 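In-cell antibody fluorescence for phospho-dAkt in each well over DNA-dye signal, with log2 residuals expressed as z-scores adjusted for cell count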
- Hit rule: 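Under insulin, a gene counts as a hit if the average z-score of two replicates lies above 2.5 or below -2.5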

For CG7530 [DRSC16255], how do the results read?
outcome: inactive

What is on record for Hr39 (Hormone receptor-like in 39) [DRSC03346]?
outcome: inactive

Which result is listed for Hsp70Aa + Hsp70Bb + Hsp70Ba + 3 more [DRSC15380]?
outcome: inactive

What is on record for ord (orientation disruptor) [DRSC04706]?
outcome: inactive

Which result is listed for CG4806 [DRSC04491]?
outcome: inactive

Which result is listed for tadr (torn and diminished rhabdomeres) [DRSC03177]?
outcome: inactive

What is on record for CG8562 [DRSC10995]?
outcome: inactive

What did the screen give for Tsp42Ej (Tetraspanin 42Ej) [DRSC06113]?
outcome: inactive

Which result is listed for CG11563 [DRSC14327]?
outcome: inactive

What did the screen give for pie (pineapple eye) [DRSC03590]?
outcome: inactive

For CG13659 [DRSC14660], how do the results read?
outcome: inactive

What did the screen give for CG31760 [DRSC02590]?
outcome: inactive

How did the screen score CG8833 [DRSC11050]?
outcome: inactive

For CG15803 [DRSC15121], what was measured?
outcome: inactive

What did the screen give for Asx (Additional sex combs) [DRSC05924]?
outcome: inactive

For GstE2 (Glutathione S transferase E2) [DRSC06672], how do the results read?
outcome: inactive

What did the screen give for CSN3 (COP9 signalosome subunit 3) [DRSC11859]?
outcome: inactive

For CG15395 [DRSC00409], what does the deposit list?
outcome: inactive

What did the screen give for Or85a (Odorant receptor 85a) [DRSC16764]?
outcome: inactive

How did the screen score ft (fat) [DRSC00819]?
outcome: inactive

With CG17362 [DRSC10267], how do the results read?
outcome: inactive

For Lcp1Psi (Larval cuticle protein 1 pseudogene) [DRSC05105], how do the results read?
outcome: inactive

Which result is listed for CG12171 [DRSC12200]?
outcome: inactive

Reprinted from the entries so far (2 entries):
Or85a (Odorant receptor 85a) [DRSC16764] → outcome = inactive
ft (fat) [DRSC00819] → outcome = inactive
